Data published in the supplement of paper PMC8728848.
The list shows a part of the results.

Experiments:
Experiment in all cases: glycan array binding signal (z-score within array); higher = stronger binding
Conditions in all cases: glycan notation: IUPAC condensed, linker removed
Man(b1-4)GlcNAc = target: Man(b1-4)GlcNAc
Outline: (§1)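 Negative Z-scores can be read as non-binding. The Z-score is calculated within each array and then averaged across arrays of one protein sequence at different concentrations or buffers and across linkers. Arrays, 3228 in all, were curated from the Consortium for Functional Glycomics database and kept only where the protein sequence was available.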

Neu5Ac(a2-3)Gal = target: Neu5Ac(a2-3)Gal
Outline: as §1

[1] = target: Neu5Ac(a2-3)Gal(b1-3)GalNAc
Outline: as §1

[2] = target: Neu5Ac(a2-3)Gal(b1-3)GalNAc(b1-3)Gal(a1-4)Gal(b1-4)Glc
Outline: as §1

[3] = target: Neu5Ac(a2-3)Gal(b1-3)GalNAc(b1-4)[Neu5Ac(a2-3)]Gal(b1-4)Glc
Outline: as §1

[4] = target: Neu5Ac(a2-3)Gal(b1-3)GalNAc6S
Outline: as §1

[5] = target: Neu5Ac(a2-3)Gal(b1-3)GlcNAc
Outline: as §1

[6] = target: Neu5Ac(a2-3)Gal(b1-3)GlcNAc(b1-2)Man(a1-3)[Neu5Ac(a2-3)Gal(b1-3)GlcNAc(b1-2)Man(a1-6)]Man(b1-4)GlcNAc(b1-4)GlcNAc
Outline: as §1

[7] = target: Neu5Ac(a2-3)Gal(b1-3)GlcNAc(b1-3)Gal(b1-3)GlcNAc
Outline: as §1

[8] = target: Neu5Ac(a2-3)Gal(b1-3)GlcNAc(b1-3)Gal(b1-4)GlcNAc
Outline: as §1

[9] = target: Neu5Ac(a2-3)Gal(b1-3)GlcNAc(b1-3)GalNAc
Outline: as §1

[10] = target: Neu5Ac(a2-3)Gal(b1-3)GlcNAc6S
Outline: as §1

[11] = target: Neu5Ac(a2-3)Gal(b1-3)[Fuc(a1-4)]GlcNAc
Outline: as §1

[12] = target: Neu5Ac(a2-3)Gal(b1-3)[Fuc(a1-4)]GlcNAc(b1-3)Gal(b1-3)[Fuc(a1-4)]GlcNAc
Outline: as §1

[13] = target: Neu5Ac(a2-3)Gal(b1-3)[Fuc(a1-4)]GlcNAc(b1-3)Gal(b1-4)[Fuc(a1-3)]GlcNAc
Outline: as §1

[14] = target: Neu5Ac(a2-3)Gal(b1-3)[Neu5Ac(a2-3)Gal(b1-4)]GlcNAc
Outline: as §1

[15] = target: Neu5Ac(a2-3)Gal(b1-3)[Neu5Ac(a2-6)]GalNAc
Outline: as §1

Neu5Ac(a2-3)Gal(b1-4)Glc = target: Neu5Ac(a2-3)Gal(b1-4)Glc
Outline: as §1

[16] = target: Neu5Ac(a2-3)Gal(b1-4)GlcNAc
Outline: as §1

[17] = target: Neu5Ac(a2-3)Gal(b1-4)GlcNAc(b1-2)Man(a1-3)[GlcNAc(b1-2)Man(b1-4)GlcNAc(b1-2)Man(a1-6)]Man(b1-4)GlcNAc(b1-4)GlcNAc
Outline: as §1

[18] = target: Neu5Ac(a2-3)Gal(b1-4)GlcNAc(b1-2)Man(a1-3)[Neu5Ac(a2-6)Gal(b1-4)GlcNAc(b1-2)Man(a1-6)]Man(b1-4)GlcNAc(b1-4)GlcNAc
Outline: as §1

[19] = target: Neu5Ac(a2-3)Gal(b1-4)GlcNAc(b1-3)Gal(b1-3)GlcNAc
Outline: as §1

[20] = target: Neu5Ac(a2-3)Gal(b1-4)GlcNAc(b1-3)Gal(b1-4)GlcNAc
Outline: as §1

[21] = target: Neu5Ac(a2-3)Gal(b1-4)GlcNAc(b1-3)Gal(b1-4)GlcNAc(b1-3)Gal(b1-4)GlcNAc
Outline: as §1

[22] = target: Neu5Ac(a2-3)Gal(b1-4)GlcNAc(b1-3)Gal(b1-4)[Fuc(a1-3)]GlcNAc
Outline: as §1

[23] = target: Neu5Ac(a2-3)Gal(b1-4)GlcNAc(b1-3)GalNAc
Outline: as §1

[24] = target: Neu5Ac(a2-3)Gal(b1-4)GlcNAc(b1-6)[Gal(b1-3)]GalNAc
Outline: as §1

[25] = target: Neu5Ac(a2-3)Gal(b1-4)GlcNAc(b1-6)[Neu5Ac(a2-3)Gal(b1-3)]GalNAc
Outline: as §1

[26] = target: Neu5Ac(a2-3)Gal(b1-4)GlcNAc6S
Outline: as §1

[27] = target: Neu5Ac(a2-3)Gal(b1-4)[Fuc(a1-3)]GlcNAc
Outline: as §1

[28] = target: Neu5Ac(a2-3)Gal(b1-4)[Fuc(a1-3)]GlcNAc(b1-3)Gal
Outline: as §1

[29] = target: Neu5Ac(a2-3)Gal(b1-4)[Fuc(a1-3)]GlcNAc(b1-3)Gal(b1-4)GlcNAc
Outline: as §1

[30] = target: Neu5Ac(a2-3)Gal(b1-4)[Fuc(a1-3)]GlcNAc(b1-3)Gal(b1-4)[Fuc(a1-3)]GlcNAc(b1-3)Gal(b1-4)[Fuc(a1-3)]GlcNAc
Outline: as §1

[31] = target: Neu5Ac(a2-3)Gal(b1-4)[Fuc(a1-3)]GlcNAc(b1-3)GalNAc
Outline: as §1

[32] = target: Neu5Ac(a2-3)Gal(b1-4)[Fuc(a1-3)]GlcNAc(b1-6)[Gal(b1-3)]GalNAc
Outline: as §1

[33] = target: Neu5Ac(a2-3)Gal(b1-4)[Fuc(a1-3)]GlcNAc(b1-6)[Neu5Ac(a2-3)Gal(b1-3)]GalNAc
Outline: as §1

[34] = target: Neu5Ac(a2-3)Gal(b1-4)[Fuc(a1-3)]GlcNAc6S
Outline: as §1

[35] = target: Neu5Ac(a2-3)Gal6S(b1-4)GlcNAc
Outline: as §1

B1: SAG1 (Toxoplasma gondii), P13664 (protein)
chain: MSVSLHHFIISSGFLTSMFPKAVRRAVTAGVFAAPTLMSFLRCGVMASDPPLVANQVVTCPDKKSTAAVILTPTENHFTLKCPKTALTEPPTLAYSPNRQICPAGTTSSCTSKAVTLSSLIPEAEDSWWTGDSASLDTAGIKLTVPIEKFPVTTQTFVVGCIKGDDAQSCMVTVTVQARASSVVNNVARCSYGADSTLGPVKLSAEGPTTMTLVCGKDGVKVPQDNNQYCSGTTLTGCNEKSFKDILPKLTENPWQGNASSDKGATLTIKKEAFPAESKSVIIGCTGGSPEKHHCTVKLEFAGAAGSAKSAAGTASHVSIFAMVIGLIGSIAACVA
glycan array binding signal (z-score) (Man(b1-4)GlcNAc): -0.564 | glycan array binding signal (z-score) (Neu5Ac(a2-3)Gal): 0.387 | glycan array binding signal (z-score) [1]: -0.13 | glycan array binding signal (z-score) [2]: 0.861 | glycan array binding signal (z-score) [3]: 0.728 | glycan array binding signal (z-score) [4]: -0.871 | glycan array binding signal (z-score) [5]: 0 | glycan array binding signal (z-score) [6]: 0.289 | glycan array binding signal (z-score) [7]: 0.558 | glycan array binding signal (z-score) [8]: 0.888 | glycan array binding signal (z-score) [9]: -0.984 | glycan array binding signal (z-score) [10]: -0.099 | glycan array binding signal (z-score) [11]: -0.451 | glycan array binding signal (z-score) [12]: -0.35 | glycan array binding signal (z-score) [13]: -1.01 | glycan array binding signal (z-score) [14]: -0.501 | glycan array binding signal (z-score) [15]: -0.007 | glycan array binding signal (z-score) (Neu5Ac(a2-3)Gal(b1-4)Glc): -0.371 | glycan array binding signal (z-score) [16]: -0.545 | glycan array binding signal (z-score) [17]: -0.884 | glycan array binding signal (z-score) [18]: 0.266 | glycan array binding signal (z-score) [19]: 0.139 | glycan array binding signal (z-score) [20]: -0.542 | glycan array binding signal (z-score) [21]: -0.703 | glycan array binding signal (z-score) [22]: 1.71 | glycan array binding signal (z-score) [23]: -0.406 | glycan array binding signal (z-score) [24]: -0.436 | glycan array binding signal (z-score) [25]: 1.61 | glycan array binding signal (z-score) [26]: -0.704 | glycan array binding signal (z-score) [27]: -0.651 | glycan array binding signal (z-score) [28]: -0.563 | glycan array binding signal (z-score) [29]: 0.518 | glycan array binding signal (z-score) [30]: -0.556 | glycan array binding signal (z-score) [31]: 3.63 | glycan array binding signal (z-score) [32]: 0.154 | glycan array binding signal (z-score) [33]: 0.331 | glycan array binding signal (z-score) [34]: -0.651 | glycan array binding signal (z-score) [35]: -0.584
